Changes are numbered by the printed parent chain. These are yes or no findings as the source states them, for the method shown. Some binding calls cover weakened binding; strength is not graded here.
B1: VSTB50 (antibody, human IgG1, kappa, V domains shown)
VH: QVQLVQSGSELKKPGASVKVSCKASGYTFTNYGLNWVRQAPGQGLEWMGWINPYTGEPTYADDFKGRFVFSLDTSVSTAYLQICSLKAEDTAVYYCAREGYGNYIFPYWGQGTLVTVSS
VL: DIVMTQTPLSLSVTPGQPASISCRASESVDTYANSLMHWYLQKPGQPPQLLIYRASNLESGVPDRFSGSGSGTDFTLKISRVEAEDVGVYYCQQTNEDPRTFGQGTKLEIKR
B2: VSTB60 (antibody, human IgG1, kappa, V domains shown)
VH: B1 VH with L34M, N35T, P53T, P58S, E99D, G100Y, N103I, I105V, F106S, P107A
VL: B1 VL with T31N, L36F, P47S, T95S, N96H, R100Y
B3: VSTB95 (antibody, human IgG1, kappa, V domains shown)
VH: EVQLVESGGGLVQPGGSLRLSCAASGFTFRNYGMSWVRQAPGKGLEWVASIISGGSYTYYPDSVKGRFTISRDNAKNSLYLQMNSLRAEDTAVYYCARIYDHDGDYYAMDYWGQGTTVTVSS
VL: DIVMTQSPLSLPVTPGEPASISCRSSQSIVHSNGNTYLEWYLQKPGQSPQLLIYKVSNRFSGVPDRFSGSGSGTDFTLKISRVEAEDVGVYYCFQGSHVPWTFGQGTKLEIKR
B4: VSTB53 (antibody, human IgG1, kappa, V domains shown)
VH: QVQLVQSGAEVKKPGASVKVSCKASGYTFTHYTIHWVRQAPGQGLEWMGYIIPSSGYSEYNQKFKDRVTMTRDTSTSTVYMELSSLRSEDTAVYYCARGAYDDYYDYYAMDYWGQGTLVTVSS
VL: B3 VL with S28T, G96A

Molecular target: cynomolgus VISTA expressed on K562 cells (cynomolgus)
Test: FACS

| binding | Binder |
| --- | --- |
| binds | B1 |
| binds | B2 |
| binds | B3 |
| binds | B4 |

Molecular target: cynomolgus VISTA extracellular domain (cynomolgus)
Test: ELISA

| binding | Binder |
| --- | --- |
| binds | B1 |
| binds | B2 |
| binds | B3 |
| binds | B4 |

Source: US20210318322A1
